Paper PMC8217502

Chains of the proteins cited; added tags and fusions are not shown. Lines headed by an entry give the natural chain unless they say otherwise; changes in a name come on top.
UniProt Q8IJ66: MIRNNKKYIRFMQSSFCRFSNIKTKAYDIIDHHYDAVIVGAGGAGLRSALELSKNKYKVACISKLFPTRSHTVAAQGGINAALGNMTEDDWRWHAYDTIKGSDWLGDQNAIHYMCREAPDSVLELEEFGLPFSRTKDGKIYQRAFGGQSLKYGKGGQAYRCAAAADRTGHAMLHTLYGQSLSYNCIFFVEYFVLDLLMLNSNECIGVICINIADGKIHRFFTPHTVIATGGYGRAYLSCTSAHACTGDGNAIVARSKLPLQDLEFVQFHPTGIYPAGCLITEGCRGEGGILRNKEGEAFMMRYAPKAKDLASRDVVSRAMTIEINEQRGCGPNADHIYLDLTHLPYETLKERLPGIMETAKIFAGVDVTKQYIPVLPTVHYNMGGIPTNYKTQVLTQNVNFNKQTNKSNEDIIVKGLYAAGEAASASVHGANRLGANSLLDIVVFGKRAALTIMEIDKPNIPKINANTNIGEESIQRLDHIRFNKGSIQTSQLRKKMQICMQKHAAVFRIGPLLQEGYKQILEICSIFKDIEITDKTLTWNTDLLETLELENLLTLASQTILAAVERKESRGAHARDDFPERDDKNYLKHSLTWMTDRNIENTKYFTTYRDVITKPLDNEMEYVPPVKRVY
UniProt Q8I5S5: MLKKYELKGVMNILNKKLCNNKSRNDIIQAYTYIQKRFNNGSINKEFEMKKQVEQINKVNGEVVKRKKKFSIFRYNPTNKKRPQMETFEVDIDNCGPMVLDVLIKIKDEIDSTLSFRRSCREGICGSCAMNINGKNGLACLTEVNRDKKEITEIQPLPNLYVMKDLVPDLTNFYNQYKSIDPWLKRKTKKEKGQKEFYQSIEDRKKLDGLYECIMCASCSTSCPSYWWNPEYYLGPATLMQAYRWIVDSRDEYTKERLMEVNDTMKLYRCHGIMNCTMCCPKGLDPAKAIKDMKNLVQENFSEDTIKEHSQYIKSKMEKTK

Biological target: SDHA (P. falciparum) (UniProt Q8IJ66)
Assay: native gel or EMSA; complexome profiling after method 3 only (nitrogen cavitation without saponin, larger amounts of parasites; samples ABS3D and GCT3D), digitonin, BN-PAGE 4-16%, stacking gel also analysed

- binding: binds
Substance: SDHB (from UniProt Q8I5S5)

Results are given in words; binding and its absence hold for the method and conditions named. A result given as binding can be weak or reduced; the word gives no strength.
